Results published in US20160324943 (published 2016).

Assay: general procedure: Fmoc solid-phase peptide synthesis; 2-Cl-Trt-Cl resin; TBTU/HOBt, diisopropylethylamine
Conditions: whole synthesis, scale of the general procedure 20 g resin

## Bivalirudin
214 nm
  final HPLC purity: at least 99.0%
HPLC, Synergi C12 Max-RP, UV 214 nm
  final HPLC purity: at least 99.0%
